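Luminescence from an EWS-FLI1 target-promoter (NR0B1) reporter, set against a CMV-promoter reporter, two days after silencing single genes in TC32 Ewing sarcoma cells. Each siRNA was applied at 20 nM. A z-score of the log NR0B1-over-CMV signal, less the median of siRNAs with the same seed; more negative means a stronger specific loss of the NR0B1 reporter.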

This is part of the screen; most of the strongest results are not listed here. Sequences are the guide (antisense) strand, without overhang.

Sequence	gene	seed-corrected z-score
UAAUUGUUAGCAUUCCUAC	PRKAG2	0.3027
UUCGGCAUAGAAGAGAUGC	MATN2	0.08367
UCUCCAUCGAGUUCAGAUG	PTH	0.2442
UAGUAGUUAACUGCUCUCU	LINC01125	-0.4921
AAGCCUUCAAUGCCGAUGC	ALOX15B	-0.1191
AUAUGUACGAAGCUGCUCC	DUSP19	0.6508
UUCAGAGCAAAUUACAACU	KRTAP4-4	0.02456
UUUGGGACAAUCAUCUUGG	AGTR1	-0.3846
ACUGAUUAUAGAAAACUGC	C5orf64	0.7255
ACUGGUCUAACGUAGCACC	SNRPA1	-0.1526
AAAACCUCGACAUCUGUAG	KIR2DL4	0.8522
UUUUCGUAAUACUAACUCC	KIF13A	0.5337
AGCUUUUUCACAGUCCCUG	ZNF84	0.395
UUUUCUCUAUCAACUGGAG	HOXA9	0.1308
UCACUUCGCACUGCUGCUC	THBD	-0.3501
AACCUACUAGCUGCCAGGG	BATF3	-0.07465
UAGAAUUUUCGAAAUGCUG	PACRG	-0.5764
AAACGGGCAAGUAGCAAGC	DKFZp434E1119	0.008653
UUUGUAGUAUGCAAUGAGG	BAZ1B	-0.5545
UUUGUCGAUGCGAUAGUGC	SYK	-0.05402
UCCAAGACUUGUCACCUCC	C2CD4C	-0.3857
UACUGUAAUGUUUACCUGC	HACD3	1.116
UUUCCAAAUGAGUCAAGGC	PADI2	0.6322
AAAGAUCUCAGAGGUAAAC	TRMT2A	-0.3277
UUAAUUCAACUUUCAUGCC	MRPS31	1.935
ACUGACAAAAUUUUCGUCC	SPATA24	0.03897
AAAGGAGUAAUCAAACGUG	KIAA1524	1.28
UGAGGAACGAUUUCCACCA	C20orf144	-0.6079
UCCUCUAUUAUUUUGUCCC	EML1	0.2812
UGAAGCGCAACUCAUACUG	C20orf195	0.3544
UUCAUACAGAAAGAUAUCA	TRIM49	0.1889
UCUAUAUCCUUUAAAAGAC	C3orf14	0.1637
UCUAUGUCGAUUAGGCUGC	RASGRP2	-0.1745
AAAGGGCACAGGUGACUUG	PSD	-0.6525
UACAUCAAAAAGAAGAGGC	MYL12B	0.6569
UUGGGUUAGUGUUCAAUGG	ADD1	0.3085
UUUCAUUCAAAACUCCGGC	HSD17B2	-1.18
AAAGUGCCCGGGUAGAUGG	RTN4RL2	1.233
UCUCAGCUCAUCGAUCUCG	SOGA3	-0.1822
UCAAUGAUCAGAGUGAAAG	ZPR1	-0.4202
AACUUUUGUGCUUCGGUUG	ELL2	-1.011
UUCUGAGCUGUCUCAACCC	IFT81	1.024
UUAAAGACUUCCUCAAUCG	C2orf80	-1.589
UAUUGAAAUGCCUCGAUGC	C5orf38	0.7634
AAAGAUAUCAGGGUUACAG	TAS2R45	-0.5765
UACAUACUCAUGACGAUGC	XDH	0.3083
UAUUUUGAAAUAGGGACUG	PDE6G	0.2756
UGAAGGACAAGUGACGCAC	PGBD3	-0.2766
UUCUGUCCCACAUAUGAGG	USP3	-0.1399
UAAUCGGAAAAGUUCAGGC	RFC4	-0.07313
UCAAUACUUUGGUAUGUCC	FAM126A	0.4168
AUAAGGAUUCUCACGCUUC	ZNF487	0.3585
UCUGUUCUGAUUGAACCUC	AMZ2P1	-0.2018
UCCAAUCCGAACACUAUUC	ST8SIA3	-0.8478
ACUCUGCACACGUAGAUGC	NCR3	-1.922
UAAGAUUCCGGCUAAGGUC	LRRC18	0.9835
UAGUGGAAUAGGCUGAUCG	PLEKHG7	-0.8162
UGAUCUAAGUGAAUCACGG	PCM1	-0.7956
UUGUGAACAUGAUUUAGAG	FASTKD3	0.4982
UAUUGAACGUGAAUGAGUC	SCAI	-0.4705
AUUGAUCUGAGGUCAAACC	OR56A5	-1.236
UUCUUCUAACAGUAGAUUC	SNX3	0.4763
ACUGGUUCAAUGCUUAGAG	RAB3IP	-0.8134
UCUUCGAACACUUGAAUGG	ZNF440	0.03518
ACCUUGACCACUGAGAUGU	BEND3	-1.132
UGACUUUGCAAAGAGUUGG	SERPINA6	-0.441
UUCAAGACCAAGGAACACC	ZNF785	-0.4029
UGUCAAAAACCUUGUAUUG	FAM110A	-1.345

From PubChem BioAssay record AID1159506 (NCATS, 2015).